Experimental data as given in article PMC8562477.

Test system: MBP-RstA-P (acetyl phosphate treated) (Pseudomonas fluorescens 2P24)
Test: EMSA
Conditions: EMSA: 50 mM Tris-HCl pH 7.5, 10 mM MgCl2, 10% glycerol, 0.5 mM EDTA, 50 mM KCl, 3 uM BSA, 50 ng DNA in 20 ul, 30 min room temperature, 6% native PAGE, recombinant protein, residues 1-233, protein details: N-terminal MBP (pMAL-c2X), label: FAM, probe letters rebuilt from the primers and the genome

Sequence: CGGCCTGTGTGATTACACAATTTCACAGAGCGCCTACAAAGCTTCACCCCTGTCATGGGCCTGGATCCCTACCATGAGCGGCTCAATATTGGGGAAGCACC (double strand) [FAM-mexC promoter]
- binding result (two shifted bands): binds

Sequence: GGCAATAAACACCTCAATCAGGATGCGTCAGCAATGCGTAAGCATCAGCTGAACAAAATATGAGGCGACGTCTCTTGAAACGCGTCTCCGATCTATACAGGCCTTTGTCAGGCTTTTGTAAATCCGGATATTACGCAATTTGGCTGTTTACAAACAACCGTGTACGTAAGTATATTTCTTAGCATCCTACTAATTGAAAAAATGCTCCTTTTTTACCCTTCCACCTTTCGAGTGCGCCAGTTACGCGCCTGGACCCGAGGATTT (double strand) [FAM-emhA promoter]
- binding result (concentration dependent): binds

For at least one entry, the source does not settle the construct or the ends of the probe.
